PubChem BioAssay AID652243 – Drosophila RNAi Screening Center, 2013
In all, the deposit lists about 24,000 reagents; this is a random part of those that have a named target and a result. In the full data, 246 (1%) were called active. 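Plates not normalised; calls are printed but the firefly/Renilla ratio behind them is not deposited; fold cut for lowering reported inconsistently.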 The raw values are shown without normalisation. Not given: the amount of reagent.

- Screen: 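Fly genes required for human androgen receptor driven transcription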 (primary screen)
- Cells: Drosophila S2R+ cells
- Reagents: long dsRNA against Drosophila genes
- Timing: 72 h (48 h, then 24 h hormone)
- Challenge: synthetic androgen R1881 at 10 nM for 24 h
- Measured: 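Per-well raw luminescence of the androgen-driven firefly reporter and of the Renilla control, two replicates each, without normalisation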
- Scale: firefly reporter light: higher = more light from androgen-responsive reporter; Renilla control light: higher = more constitutive control signal (cell number, transfection)
- Call rule: 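Across duplicate plates, a knock-down whose log firefly/Renilla ratio shifted a set fold down or up from the GFP/LacZ control mean was a hit; the downward cut appears as both 1.5 and 3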
- Calls: active = hit: reporter lowered or raised; inactive = no hit

Against CG6324 [SID104199777], the entry reads firefly reporter light, replicate 1 = 2.94e5; firefly reporter light, replicate 2 = 3.08e5; Renilla control light, replicate 1 = 2.19e6; Renilla control light, replicate 2 = 2.60e6; inactive.
After knock-down of CG7377 [SID104190622], the record shows firefly reporter light, replicate 1 = 2.67e5; firefly reporter light, replicate 2 = 1.72e5; Renilla control light, replicate 1 = 2.23e6; Renilla control light, replicate 2 = 1.48e6; inactive.
For l(2)gd1 [SID104182565] the deposit lists firefly reporter light, replicate 1 = 1.10e6; firefly reporter light, replicate 2 = 4.94e5; Renilla control light, replicate 1 = 1.94e6; Renilla control light, replicate 2 = 1.44e6; inactive.
For l(2)gd1 [SID104207722] the deposit lists firefly reporter light, replicate 1 = 5.28e5; firefly reporter light, replicate 2 = 8.92e5; Renilla control light, replicate 1 = 1.36e6; Renilla control light, replicate 2 = 1.49e6; inactive.
For CG15614 [SID104186359], the entry reads firefly reporter light, replicate 1 = 83269; firefly reporter light, replicate 2 = 70687; Renilla control light, replicate 1 = 1.03e6; Renilla control light, replicate 2 = 1.03e6; inactive.
With knock-down of CG6403 [SID104195825], the screen gave firefly reporter light, replicate 1 = 4.79e5; firefly reporter light, replicate 2 = 4.56e5; Renilla control light, replicate 1 = 2.63e6; Renilla control light, replicate 2 = 4.26e6; inactive.
Against Cyp303a1 [SID104183092], the entry reads firefly reporter light, replicate 1 = 1.66e5; firefly reporter light, replicate 2 = 1.19e5; Renilla control light, replicate 1 = 2.13e6; Renilla control light, replicate 2 = 1.20e6; inactive.
Knock-down of NLaz [SID104201241] gave: firefly reporter light, replicate 1 = 7.70e5; firefly reporter light, replicate 2 = 6.77e5; Renilla control light, replicate 1 = 2.36e6; Renilla control light, replicate 2 = 2.20e6; inactive.
For MESR6 [SID104190512], the entry reads firefly reporter light, replicate 1 = 51086; firefly reporter light, replicate 2 = 79788; Renilla control light, replicate 1 = 6.65e5; Renilla control light, replicate 2 = 4.08e5; inactive.
With knock-down of MESR6 [SID104206888], the screen gave firefly reporter light, replicate 1 = 3.98e5; firefly reporter light, replicate 2 = 5.91e5; Renilla control light, replicate 1 = 8.68e5; Renilla control light, replicate 2 = 1.41e6; inactive.
With knock-down of Sqor [SID104188245] the results were firefly reporter light, replicate 1 = 6.22e5; firefly reporter light, replicate 2 = 2.29e5; Renilla control light, replicate 1 = 1.14e6; Renilla control light, replicate 2 = 8.11e5; inactive.
With knock-down of Sqor [SID104205600], the record shows firefly reporter light, replicate 1 = 5.17e5; firefly reporter light, replicate 2 = 3.05e5; Renilla control light, replicate 1 = 7.38e5; Renilla control light, replicate 2 = 3.45e5; inactive.

Taken from above:
Entry for NLaz [SID104201241] under “Renilla control light, replicate 1”: 2.36e6
For “Renilla control light, replicate 1”, Cyp303a1 [SID104183092] has 2.13e6
